Measurements reported in PubChem BioAssay AID651664 (NMMLSC, 2012).
Hit rate of the full screen: of about 1,800 compounds, fewer than 10 were called active.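 The calls were made as follows: active = inhibition of granule release above a set limit; inactive = the rest.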 Some of the results follow.

test: LAMP-1 surface externalization blockers in TALL-104 cells – cell-based, flow cytometry, validation set (AID 651664); settings: TALL-104 LAMP-1 externalization, at 15.2 µM, active compounds read high, stimulated with thapsigargin and PMA

inhibition, inactive:
CC1(C)Cc2c(c(-c3ccco3)nc3n[nH]c(N)c23)CO1 0.7%
CCCn1c2c(c(O)c(C(=O)Nc3ccccc3)c1=O)CCCC2 1.8%
COC(=O)C(C#N)C(=C1C(=O)CC(C)(C)CC1=O)c1ccc(O)cc1 (stereo not drawn) -2.7%
Cc1csc(SCCn2c(N3CCN(c4ccccc4)CC3)nc3c2c(=O)[nH]c(=O)n3C)n1 0%
CCOC(=O)C1CCN(C(c2ccccn2)c2c(C)[nH]c3ccccc23)CC1 (stereo not drawn) -1.2%
CCOC(=O)C1=C(C)N(C2CCCCC2)C(=O)C1 0.6%
Cc1ccc(C2=[N+]([O-])C3(CCCCC/C3=N\NC(N)=O)N(O)C2(C)C)o1 (stereo not drawn) 4.6%
Cc1cc(C)nc(NS(=O)(=O)c2ccc(NC(=O)c3ccc4c(c3)OCO4)cc2)n1 -2.2%
COCCNC(=O)C(C#N)c1nc2ccccc2nc1N1CCCCCC1 (stereo not drawn) -1.4%
COc1ccc(C2C3=C(CCCC3=O)Nc3nc(C(F)(F)F)nn32)cc1OC (stereo not drawn) 1.7%
COc1ccc(NC(=O)CCC(=O)c2ccc(-c3ccccc3)cc2)cc1 1.8%
COc1ccc(-n2c(C)c([N+](=O)[O-])c3ccc(O)c(CN(C)C)c32)cc1 2.6%
Cc1onc(-c2c(Cl)cccc2Cl)c1C(=O)N1CCc2ccccc2C1 -0.2%
Cc1ccc(NC(=O)Cn2cncc2-c2ccc([N+](=O)[O-])cc2)cc1C -1.3%
COCCNC(=O)c1c[nH]c2ccc(S(=O)(=O)N3CCC4(CC3)OCCO4)cc2c1=O 0.5%
CCOC(=O)c1[nH]c2ccccc2c1N=CN(C)C 0.3%
CCOc1ccc(C(=O)OCC(=O)c2c(N)n(C)c(=O)n(C)c2=O)cc1OCC -1.7%
COCCNC(=O)C(=O)NCCN1CCOCC1 1.7%
CN1CCN(C(=O)c2ccc3c(c2)NC(=O)C(N2CCOCC2)S3)CC1 (stereo not drawn) 3.1%
O=c1[nH]ncc2c3ccccc3n(Cc3ccc(F)cc3)c12 0.4%
COC(=O)c1ccc2[nH]c(C)cc(=O)c2c1 1.4%
COc1cccc(OC)c1C(=O)NC(=S)N1CCN(c2ccc(C(F)(F)F)cc2[N+](=O)[O-])CC1 1.5%
Cn1c(=O)c2c(-c3ccccc3)n(N3CCOCC3)cc2n(C)c1=O 2.9%
Nc1ncnc2nc(SCc3ccc(Cl)cc3Cl)[nH]c12 6.3%
CCN(CC)CCOC(=O)c1cccc(OC)c1 0.2%
CC(C)OC(=O)CC12CN3CC(CC(=O)OC(C)C)(CN(C1)C(=O)c1ccccc1C3=O)C2=O -2.2%
COc1ccc(CNC(=O)C(C#N)c2nc3ccccc3nc2N2CCCC2)cc1 (stereo not drawn) -0.5%
O=C(CN1C(=O)CCS(=O)(=O)c2ccccc21)Nc1cccc(Cl)c1 -1.2%
Cc1ccc(C(=O)OCCN2CCN(c3ncc(C(F)(F)F)cc3Cl)CC2)cc1 1.6%
CC(C)C1Cc2c(sc3c2c(=O)n(Cc2ccccc2)c2nncn32)CO1 (stereo not drawn) -1.4%
COC(=O)C1=C(N)c2c(F)cccc2C1(C#N)c1ccccc1 (stereo not drawn) 0.3%
COC(=O)CSc1nc(SCc2ccc(C)cc2)nc2c1CCCC2 0.1%
CNc1nc(Oc2ccc(=O)n(C)n2)nc(N2CCOCC2)n1 -0.6%
Cc1ccc(Nc2cc(=O)n(C3CCCCC3)c(=O)[nH]2)cc1C 2.8%
COc1ccccc1-c1nc(C#N)c(N2CCN(C(c3ccccc3)c3ccccc3)CC2)o1 2.6%
Cc1ccc(S(=O)(=O)c2c(N)n(CCCO)c3nc4ccccc4nc23)cc1 -1.5%
O=C(OCC(=O)N1CCCC1)c1ccco1 0.9%
Cc1nn2c(N)c(C#N)cnc2c1-c1ccc(Cl)cc1 2.5%
O=C(Nc1ccc(Cl)c(Cl)c1)C1=Cc2ccccc2OC1 5.1%
Cc1ccccc1C1=NC(c2ccc(F)cc2F)ON1 (stereo not drawn) 1.2%
C=CCn1c(-c2cccs2)nc2nc3ccccc3nc21 -2.3%
CSCC[C@H](NC(=O)NCCC1=CCCCC1)C(=O)O 1.1%
COC(=O)CSc1ncnc2c1cnn2Cc1ccccc1 -0.5%
O=C(O)CCc1c(C(=O)O)[nH]c2ccccc12 1.9%
COc1ccc(C(=O)N2CCCC2)cc1S(=O)(=O)N1CCC(C)CC1 2.4%
CC(C)COc1nc2ccccc2c(=O)n1OCC(=O)O -1.8%
COCc1ccc(O)c2ncccc12 -1.7%
CNc1nc(C)c(C(=O)c2ccc(Cl)cc2)s1 1.3%
Cc1ccc(S(=O)(=O)c2nc(S(C)(=O)=O)sc2NCC2CCCO2)cc1 (stereo not drawn) -1.4%
N#Cc1c(-c2ccccc2)nc(-c2ccccc2)nc1N1CCOCC1 -0.6%
O=C(CSc1nnc(-c2ccccc2Cl)o1)Oc1ccc(Br)cc1 -2.2%
O=C(NCC(c1cccnc1)N1CCN(c2ccccc2F)CC1)C1CCCCC1 (stereo not drawn) 0.3%
CCN(CC)Cc1c(O)ccc2c(=O)c(-c3ccc4c(c3)OCCO4)coc12 2.4%
Cc1cnn(-c2cc(N/N=C/c3ccccc3Cl)ncn2)c1 4.7%
COc1ccccc1NC(=O)N(Cc1ccccc1)c1ccccn1 -0.2%
Clc1ccc(OCCSc2nnnn2C2CCCCC2)cc1 1%
CCCCN(Cc1cc2ccccc2[nH]c1=O)C(=O)c1ccccn1 0.4%
O=C1N=C(N2CCCC2)S/C1=C\c1cccc(Br)c1 0.5%
CC(=O)N1CCc2cc(NS(=O)(=O)c3cccs3)ccc21 -1.2%
Cc1cc(=O)oc2c(CN3CCCCC3)c(O)c(Cl)cc12 -0.5%
CCc1sc2nc(SCC(=O)Nc3cc(C)on3)n(-c3cccc(OC)c3)c(=O)c2c1C -1.9%
COc1ccc(NC(=O)c2ccccc2Cl)cc1NC(=O)CN1CCOCC1 3.1%
COc1ccc(C2=CC(c3sccc3C)n3nnnc3N2)cc1 (stereo not drawn) 1.8%
O=C(Nc1ccc2oc(-c3ccc(F)cc3)nc2c1)c1ccccc1F 20.2%
CC(C(=O)Nc1ccc2c(c1)OCO2)N(c1ccc(Cl)cc1)S(C)(=O)=O (stereo not drawn) 2.4%
O=C(CCl)Nc1cccn2ncnc12 -2.1%
CCOC(=O)c1sc(NC(=O)CSc2nnnn2-c2ccccc2)c(C(=O)OCC)c1C 3.5%
Cc1ccc(SC(C)C(=O)Nc2ccccc2C(=O)N2CCOCC2)cc1 (stereo not drawn) -4.5%
COc1ccc(N2CCN(c3nc(Cl)nc(N4CCOCC4)n3)CC2)cc1 -2.4%
CN(C)c1nc(C#N)nc(N2CCOCC2)n1 -2.3%
CCOc1c(Cl)cc(C(=O)Nc2ccccc2-c2ccccc2)cc1Cl -0.6%
COC(=O)CN1C(=O)Nc2ccc(Br)cc2C1c1ccccc1Cl (stereo not drawn) -2.6%
COC(=O)C(N)Cc1ccc(O)c(O)c1 (stereo not drawn) -2.3%
COc1ccccc1N1CCN(Cc2cc(=O)n3ccsc3n2)CC1 2.9%
O=C(NC(=S)N1CCCc2ccccc21)c1ccccc1 -2.6%
CCOC(=O)C(=Cc1ccc(OCc2ccc([N+](=O)[O-])cc2)c(OC)c1)C(=O)OCC -3.8%
CC(=O)Nc1cccc(N2C(=O)CC(Cc3ccccc3)C2=O)c1 (stereo not drawn) -1.9%
O=C(Nc1ccccc1C(F)(F)F)N1CCC(N2CCCCC2)CC1 -2.1%
Clc1ccccc1C1SCC2Nc3ccccc3CN21 (stereo not drawn) 0.1%
CCCS(=O)(=O)N1CCCC(C(=O)NCc2ccco2)C1 (stereo not drawn) -4.1%
O=c1[nH]c2c(s1)C(c1ccccc1)C1C3CCC(C3)C1S2 (stereo not drawn) 0.8%
CCN1C(c2ccccc2)C(C)C(=O)C(C)C1c1ccccc1 (stereo not drawn) -3.9%
Cc1cc(C)c(NC(=O)CSc2nnc(SCC(=O)Nc3c(C)cc(C)cc3C)n2N)c(C)c1 -2.6%
O=C(Nc1nc2c(s1)CCCC2)c1ccc(Br)o1 3%
Cc1ccc(CN2C(=O)CCC2C(=O)NCCCN2CCCC(C)C2)cc1 (stereo not drawn) -1.2%
C1CCN(c2nc(N3CCCCC3)nc(N3CCNCC3)n2)CC1 -1.5%
CC1(C)CC2CC(C)(CN2C(=O)COC(=O)c2ccc(Cl)cc2N)C1 (stereo not drawn) 0.3%
OCCN1CCN(c2nc(NCc3ccco3)c3ccccc3n2)CC1 3.9%
Cc1cc(C)nc(N2C(=O)CC(C(=O)O)NC2=NCCc2c[nH]c3ccccc23)n1 (stereo not drawn) 3.7%
CCCCn1ccnc1C(=O)c1cccc(S(=O)(=O)N2c3ccccc3CC2C)c1 (stereo not drawn) -1%
NC(=S)Nc1cccc2cnccc12 0.6%
CSc1nc(SCC(N)=O)c2c3c(sc2n1)CN(C)CC3 2.5%
Cn1c(N2CCN(c3ccccn3)CC2)nc2c1c(=O)n(Cc1ccccc1Cl)c(=O)n2C -1.7%
CC(C)(C)C(=O)Nc1ccc2oc(-c3cc(F)c(F)cc3Cl)nc2c1 0.6%
O=C(CC(SCCO)c1ccc2c(c1)OCO2)c1ccco1 (stereo not drawn) 1.2%
O=C(Nc1nc2ccccc2[nH]1)c1ccccc1 -2.2%
O=C(CCN1C(=O)C2CC=C(Cl)CC2C1=O)Nc1ccccc1O (stereo not drawn) -0.5%
Cc1cccc(Oc2c(C=O)c3ccccc3n2C)c1 -5%
